The text below walks through data of PubChem BioAssay AID2685 (National Center for Advancing Translational Sciences (NCATS), 2010).

The list shows a part of the results. The main result of the screen is listed elsewhere. These columns were measured beside it and carry no call. Compounds called inactive in the main read-out are mostly missing here. The note in brackets gives the kind of curve behind each potency; many fits are weak.

A short description of this test: qHTS Assay for Lipid Storage Modulators in Drosophila S3 Cells.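 For cell number change: cells counted by Cell Tracker Red CMTPX staining in the red channel.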 The conditions noted are these: BODIPY lipid droplet fluorescence, 18-24 h; for cell number change: measured here: cell count max response, cells fed with added oleic acid. In outline:
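Drosophila S3 cells got compounds at several concentrations plus oleic acid (400 uM solution). Laser-scanning cytometry with 488 nm excitation read lipid droplets at 500-530 nm and cells at 575-640 nm. Percent activity was relative to 20 uM Triacsin C.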

Setting [1] is: measured here: lipid fluorescence (Fed channel) AC50, cells fed with added oleic acid.
Where [2] appears, read: measured here: cell number channel AC50, cells fed with added oleic acid.

`COc1cc(CN2CCN(CCOCCO)CC2)cc(OC)c1OC`: the cell number change is -29.5%. Also, the AC50 under setting [1] is 1.03 µM [falling, full curve].

In the case of `Cc1ccc(N2C(N)=C(C#N)C(c3cccnc3)C3=C2CC(C)(C)CC3=O)cc1` (configuration not stated), the AC50 is 0.0731 µM [rising, full curve, poor fit] under setting [2] and 0.103 µM [rising, full curve, poor fit] under setting [1]. In the case of `CCOC(=O)c1nn(-c2ccc(F)cc2)c(=O)c2c(N)scc12`, the cell number change is -18%. Moreover, under setting [1], the AC50 was 2.31 µM [falling, partial curve, poor fit]. With `Cc1ccc(C(=O)N/C(=C\c2ccco2)C(=O)N2CC(C)OC(C)C2)cc1C` (configuration not stated), the cell number change was -6.52%. Moreover, the AC50 under setting [1] was 29.1 µM [rising, single point]. `O=C(CSc1nc(O)cc(=O)n1-c1ccccc1)NCc1ccccc1`: the cell number change was -55.8%. Also, the AC50 under setting [2] is 11.6 µM [falling, partial curve, poor fit]. `CC(C)CNS(=O)(=O)c1ccc(S(=O)(=O)N2CCN(CCC#N)CC2)cc1`: the cell number change came out at 18.4%. Further, under setting [1], the AC50 was 0.651 µM [falling, single point].

As for `Nn1c(SCc2csc(-c3ccccc3)n2)nnc1-c1cccs1`, the AC50 under setting [2] is 2.31 µM [rising, partial curve]. With `COc1ccc(Oc2nc(-c3ccccc3)ncc2C(=O)O)cc1`, the cell number change was -3.49%. Under setting [1], the AC50 is 0.082 µM [falling, partial curve, poor fit]. Turning to `COc1ccc(-c2cc(C(F)(F)F)nc(N3CCN(c4ccc(F)cc4)CC3)n2)cc1OC`, the cell number change was -97.1%. Moreover, the AC50 under setting [2] was 29.1 µM [falling, single point]. Under setting [1], the AC50 was 29.1 µM [falling, single point]. As to `COc1cc2c(cc1OC)CN(C(=O)c1ccc(S(=O)(=O)N3CCCCCC3)cc1)CC2`, the cell number change worked out at 36.1%. For the same compound, the AC50 under setting [2] is 32.6 µM [rising, single point]. In the case of `CCOc1cc(C(=O)NCc2ccco2)cc(OCC)c1OCC`, the cell number change was -0.351%. On to `CCOC(=O)N1CCN(Cc2nc3cc(NC(C)=O)ccc3n2CC)CC1`, for which the cell number change was -3.55%. For the same compound, the AC50 under setting [2] is 0.00461 µM [falling, full curve, poor fit].

For `COc1ccc(N2Cc3ccccc3/C2=N\C(=O)Nc2ccccc2)cc1`, the cell number change is 69%. In addition, the AC50 under setting [2] is 29.1 µM [rising, single point]. As for `CN(C)S(=O)(=O)c1ccc(C(=O)OCc2ccc([N+](=O)[O-])cc2)cc1`, the cell number change is -108%. With `CCN(CC)S(=O)(=O)c1ccc2c(c1)nc(CCC(=O)OCC(=O)Nc1cc(OC)cc(OC)c1)n2C`, the AC50 under setting [2] was 0.82 µM [rising, full curve] and the AC50 under setting [1] is 1.46 µM [rising, partial curve]. `CCc1ccc(-c2cc(C)no2)cc1S(=O)(=O)N1CCN(c2ccccn2)CC1`: the cell number change came out at 8.02%. Under setting [2], the AC50 is 6.51 µM [rising, single point]. `CC(C)c1cc(C(=O)O)n(-c2ccccc2)n1`: the cell number change is 23.1%. Moreover, the AC50 under setting [1] is 6.51 µM [falling, single point]. With `CC1=CC(C)(C)Nc2ccc(OC(=O)CN3C(=O)C4CCCCC4C3=O)cc21` (configuration not stated), the cell number change was found to be 59.3%. The AC50 under setting [1] was 0.651 µM [falling, partial curve, poor fit]. Take `CCn1c(COc2ccccc2)nnc1SCC(=O)Nc1ccc2c(c1)OCCO2`: the cell number change was -75.5%. Moreover, the AC50 under setting [2] was 13 µM [falling, partial curve]. Under setting [1], the half-maximal activity concentration (AC50) is 6.51 µM [falling, partial curve]. For the compound `O=C(CSCc1ccc(Cl)cc1Cl)Nc1nccs1`, the cell number change was determined as 2.72%. Also, under setting [2], the AC50 was 2.06 µM [rising, partial curve]. Besides, the AC50 under setting [1] is 2.91 µM [rising, partial curve]. In the case of `Cc1ccccc1CN1C[C@@H]2C[C@@H](c3cn(C)nc3-c3ccccc3)N3CCC[C@@]23C1=O`, the cell number change is -37.6%. In addition, the AC50 under setting [2] is 29.1 µM [falling, single point]. Also, the AC50 under setting [1] is 32.6 µM [falling, single point]. For the compound `O=C(CCC(=O)N1CCN(c2ccc(C(F)(F)F)cn2)CC1)c1cccs1`, the cell number change amounted to 13.7%. In addition, under setting [1], the AC50 is 6.51 µM [rising, single point]. `COC(=O)c1ccc(N2C(=O)CC(N3CCC(O)(c4ccc(Br)cc4)CC3)C2=O)cc1` (configuration not stated): the cell number change was 23.3%.

Turning to `COc1ccc(CCNC(=O)c2nnn(-c3cccc(C)c3)c2N)cc1OC`, the cell number change was determined as 48.2%. Moreover, under setting [2], the AC50 is 2.59 µM [rising, full curve]. On to `CCN(c1ccccc1)S(=O)(=O)c1ccc(C(=O)Nc2nccs2)cc1`, for which the cell number change was determined as 83.9%. In addition, under setting [2], the AC50 is 20.6 µM [rising, single point]. For the same compound, the AC50 under setting [1] is 29.1 µM [rising, single point]. In the case of `Cc1ccnc(NC(=O)c2ccccc2NC(=O)c2ccc(Cl)cc2Cl)c1`, the cell number change was -16.2%. Further, under setting [1], the AC50 was 29.1 µM [falling, single point].

Turning to `O=C1CC(c2ccc(Cl)cc2)CC(O)=C1C=NCCN1CCNCC1` (configuration not stated), the cell number change amounted to 16.4%. Further, the AC50 under setting [1] was 29.1 µM [rising, single point].

Regarding `CC(C)CC(=O)N=Nc1c(O)[nH]c2ccccc12`, the cell number change came to 9.38%. Also, under setting [2], the AC50 was 2.59 µM [rising, single point]. Further, under setting [1], the AC50 is 1.64 µM [rising, single point]. On to `C/C(=N\S(=O)(=O)c1ccc(C)cc1)NC(=S)Nc1ccccc1`, for which the cell number change was determined as 4.19%. As for `CCc1ccc(C(=O)NNC(=O)C2CSC3(C)CCC(=O)N23)cc1` (configuration not stated), the cell number change was -24.9%. Further, the AC50 under setting [2] is 0.0731 µM [falling, full curve, poor fit]. On to `COc1ccc(C(=O)Nc2ccccn2)cc1S(=O)(=O)N1CCOCC1`, for which the cell number change is 2.27%. Moreover, the AC50 under setting [2] was 0.13 µM [rising, full curve, poor fit].

Turning to `CCCCOc1ccc(NC(=O)CSc2cccc3cccnc23)cc1`, the cell number change worked out at 0.563%.

`CC(C)c1ccc(C(CC(=O)O)NC(=O)c2cccs2)cc1` (configuration not stated): the cell number change was -4.41%. The AC50 under setting [1] is 0.103 µM [falling, full curve, poor fit].

In the case of `Cc1ccc(NS(=O)(=O)c2cccc(C(=O)NNC(=O)NC3CCCCC3)c2)c(C)c1`, the AC50 under setting [1] is 6.51 µM [falling, single point]. `NS(=O)(=O)c1ccc2nc(NC(=O)c3ccc4c(c3)OCCO4)sc2c1`: the cell number change is -19.1%. The AC50 under setting [1] is 29.1 µM [rising, single point]. With `CC(CNC(=O)CCn1ccc2cc(S(=O)(=O)N3CCCC3)ccc21)c1ccccc1` (configuration not stated), under setting [1], the AC50 is 3.26 µM [rising, partial curve]. In the case of `COc1ccc(CNC(=O)CN2CCC(NC(=O)c3ccc(OC)cc3)CC2)cc1`, the cell number change is -0.806%. In addition, under setting [1], the AC50 is 0.82 µM [falling, partial curve, poor fit].
